Data source: PubChem BioAssay AID1259308 (NCATS, 2017)

Screen: 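Genes whose loss raises luciferase production in HEK293 cells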 (primary screen)
Cell system: human HEK293 embryonic kidney cells stably expressing firefly luciferase (HEK-CMV-Luc2-Hygro)
Reagents: single siRNA against human genes, 0.8 pmol siRNA per well
Time to read-out: 72 h
Measurement: 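Reporter luminescence and viable-cell signal on separate replicate plates, given as percent of non-targeting control and median/MAD z-scores, plus per-cell luciferase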
Direction: total luciferase, z-score and total luciferase, % of control: higher = more reporter protein produced
Rule for the call: 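Active when the median/MAD z-score for overall luciferase is greater than 3; a gene was taken forward for validation with new siRNAs if at least two of its three siRNAs passed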
Calls: active = raised luciferase; inactive = no rise
The deposit covers about 59,000 reagents; below is an unselected part. About 1,510 of all reagents (2.6%) count as active. 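Calls use total luciferase alone and ignore viability, so some active siRNAs may act by altering cell number.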 Unmarked entries are inactive. Reagents against one gene are numbered here. Further read-outs or replicates are left out here. No sequences are given here.

gene | siRNA no. | total luciferase, z-score | total luciferase, % of control
SLIT2 | 1 | -0.904 | 63.9
SLIT2 | 2 | 0.00152 | 81.9
SLIT2 | 3 | -1.9 | 44.2
EMX1 | 1 | 3.02 (active) | 142
EMX1 | 2 | 0.298 | 87.8
EMX1 | 3 | 0.986 | 101
TSPAN13 | 1 | -0.838 | 65.2
TSPAN13 | 2 | -0.596 | 70
TSPAN13 | 3 | -1.4 | 53.9
KIF18A | 1 | 0.0787 | 83.5
KIF18A | 2 | -0.166 | 78.6
KIF18A | 3 | -0.505 | 71.8
UNC13B | 1 | 0.411 | 90.1
UNC13B | 2 | -1.24 | 57.3
UNC13B | 3 | -2.55 | 31.2
SERP2 | 1 | 1.61 | 114
SERP2 | 2 | 0.384 | 89.5
SERP2 | 3 | -1.44 | 53.2
AKNAD1 | 1 | 0.54 | 92.6
AKNAD1 | 2 | -0.454 | 72.9
AKNAD1 | 3 | -0.628 | 69.4
CTCF | 1 | -0.484 | 72.3
CTCF | 2 | -0.861 | 64.8
CTCF | 3 | 0.138 | 84.6

Looked up above.
Entry of TSPAN13 #3 under “total luciferase, % of control”: 53.9
UNC13B #1, total luciferase, % of control: 90.1
